Laboratory results as given in the supplement of paper PMC11006884.
Only a part is listed here, and it is no random draw.

Chains of the proteins cited; added tags and fusions are not shown. Lines headed by an entry give the natural chain unless they say otherwise; changes in a name come on top.
UniProt O14965: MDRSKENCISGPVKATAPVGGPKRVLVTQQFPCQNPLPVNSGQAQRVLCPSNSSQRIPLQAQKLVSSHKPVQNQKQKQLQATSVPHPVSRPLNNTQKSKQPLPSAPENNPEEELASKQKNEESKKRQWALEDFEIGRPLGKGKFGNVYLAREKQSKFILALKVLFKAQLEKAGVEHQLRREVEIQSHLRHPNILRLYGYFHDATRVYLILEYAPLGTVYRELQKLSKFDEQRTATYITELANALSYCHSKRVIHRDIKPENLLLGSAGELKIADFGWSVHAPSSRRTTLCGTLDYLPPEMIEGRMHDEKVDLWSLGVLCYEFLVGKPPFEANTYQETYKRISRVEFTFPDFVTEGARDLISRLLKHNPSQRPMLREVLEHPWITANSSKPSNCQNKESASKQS
UniProt O14733: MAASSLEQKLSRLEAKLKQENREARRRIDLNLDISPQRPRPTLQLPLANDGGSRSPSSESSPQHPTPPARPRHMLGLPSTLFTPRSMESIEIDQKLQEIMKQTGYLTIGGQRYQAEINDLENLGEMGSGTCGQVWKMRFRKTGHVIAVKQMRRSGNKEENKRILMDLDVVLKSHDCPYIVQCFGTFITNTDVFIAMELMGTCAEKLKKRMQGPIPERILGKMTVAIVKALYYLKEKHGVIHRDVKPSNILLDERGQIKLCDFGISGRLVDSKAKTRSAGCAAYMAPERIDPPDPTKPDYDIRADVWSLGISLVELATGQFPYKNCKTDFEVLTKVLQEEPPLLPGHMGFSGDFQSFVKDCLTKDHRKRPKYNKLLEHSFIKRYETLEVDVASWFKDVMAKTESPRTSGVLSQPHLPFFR
UniProt O15226: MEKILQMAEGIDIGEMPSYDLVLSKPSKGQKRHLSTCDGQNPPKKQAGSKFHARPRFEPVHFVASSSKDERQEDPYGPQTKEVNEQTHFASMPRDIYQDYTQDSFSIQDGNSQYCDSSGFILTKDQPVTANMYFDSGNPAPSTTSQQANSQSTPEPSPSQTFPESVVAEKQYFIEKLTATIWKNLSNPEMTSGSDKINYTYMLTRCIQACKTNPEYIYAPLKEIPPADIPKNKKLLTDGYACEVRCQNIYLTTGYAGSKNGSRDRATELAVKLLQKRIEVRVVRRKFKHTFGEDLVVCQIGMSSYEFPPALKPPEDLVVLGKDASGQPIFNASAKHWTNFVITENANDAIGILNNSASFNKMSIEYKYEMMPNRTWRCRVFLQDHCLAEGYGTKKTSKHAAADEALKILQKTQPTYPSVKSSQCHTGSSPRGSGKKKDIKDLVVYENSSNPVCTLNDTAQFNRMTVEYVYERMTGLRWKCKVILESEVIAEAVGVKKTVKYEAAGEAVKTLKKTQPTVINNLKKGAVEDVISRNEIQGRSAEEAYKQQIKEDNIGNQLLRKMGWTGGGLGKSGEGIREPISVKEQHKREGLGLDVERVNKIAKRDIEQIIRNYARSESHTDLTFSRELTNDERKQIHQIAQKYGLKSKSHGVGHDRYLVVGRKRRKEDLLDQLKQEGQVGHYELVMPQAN
UniProt O00429, whole entry, looked up: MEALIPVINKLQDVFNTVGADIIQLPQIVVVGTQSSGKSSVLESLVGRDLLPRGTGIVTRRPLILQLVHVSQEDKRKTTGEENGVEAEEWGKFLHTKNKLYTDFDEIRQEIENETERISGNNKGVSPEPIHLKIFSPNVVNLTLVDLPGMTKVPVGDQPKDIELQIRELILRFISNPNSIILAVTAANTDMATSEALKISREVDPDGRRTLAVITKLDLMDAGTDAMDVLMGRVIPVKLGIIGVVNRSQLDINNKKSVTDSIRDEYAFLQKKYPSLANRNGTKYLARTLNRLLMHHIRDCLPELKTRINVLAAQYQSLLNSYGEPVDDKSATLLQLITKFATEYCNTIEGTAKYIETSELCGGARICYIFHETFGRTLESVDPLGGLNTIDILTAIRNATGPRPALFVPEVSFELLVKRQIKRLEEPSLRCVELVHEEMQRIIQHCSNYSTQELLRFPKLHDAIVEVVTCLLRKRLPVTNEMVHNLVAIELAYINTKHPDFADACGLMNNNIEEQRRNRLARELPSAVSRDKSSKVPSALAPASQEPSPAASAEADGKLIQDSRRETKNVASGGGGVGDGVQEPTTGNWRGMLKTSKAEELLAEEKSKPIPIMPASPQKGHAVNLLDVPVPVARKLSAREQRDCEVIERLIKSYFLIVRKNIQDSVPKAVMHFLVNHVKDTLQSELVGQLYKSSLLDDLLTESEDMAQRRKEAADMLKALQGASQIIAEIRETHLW
UniProt O43237, whole entry, looked up: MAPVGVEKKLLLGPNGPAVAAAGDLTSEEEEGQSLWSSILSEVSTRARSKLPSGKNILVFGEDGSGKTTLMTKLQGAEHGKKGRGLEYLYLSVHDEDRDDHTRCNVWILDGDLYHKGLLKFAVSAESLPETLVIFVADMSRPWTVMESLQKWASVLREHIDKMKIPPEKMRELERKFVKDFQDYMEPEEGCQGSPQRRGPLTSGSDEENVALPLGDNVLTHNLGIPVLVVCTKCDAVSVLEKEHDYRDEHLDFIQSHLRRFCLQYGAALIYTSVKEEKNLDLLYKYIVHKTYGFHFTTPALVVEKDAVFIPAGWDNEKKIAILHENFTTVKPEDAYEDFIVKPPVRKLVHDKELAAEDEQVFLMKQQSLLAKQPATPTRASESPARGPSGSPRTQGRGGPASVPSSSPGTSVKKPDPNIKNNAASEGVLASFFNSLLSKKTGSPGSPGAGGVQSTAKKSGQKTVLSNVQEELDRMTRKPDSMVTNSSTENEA
UniProt O14950, whole entry: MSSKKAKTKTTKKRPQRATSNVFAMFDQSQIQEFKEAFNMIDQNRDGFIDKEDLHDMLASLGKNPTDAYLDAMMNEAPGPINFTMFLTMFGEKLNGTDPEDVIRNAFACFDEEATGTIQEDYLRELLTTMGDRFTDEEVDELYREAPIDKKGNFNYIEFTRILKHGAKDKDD
UniProt O15164: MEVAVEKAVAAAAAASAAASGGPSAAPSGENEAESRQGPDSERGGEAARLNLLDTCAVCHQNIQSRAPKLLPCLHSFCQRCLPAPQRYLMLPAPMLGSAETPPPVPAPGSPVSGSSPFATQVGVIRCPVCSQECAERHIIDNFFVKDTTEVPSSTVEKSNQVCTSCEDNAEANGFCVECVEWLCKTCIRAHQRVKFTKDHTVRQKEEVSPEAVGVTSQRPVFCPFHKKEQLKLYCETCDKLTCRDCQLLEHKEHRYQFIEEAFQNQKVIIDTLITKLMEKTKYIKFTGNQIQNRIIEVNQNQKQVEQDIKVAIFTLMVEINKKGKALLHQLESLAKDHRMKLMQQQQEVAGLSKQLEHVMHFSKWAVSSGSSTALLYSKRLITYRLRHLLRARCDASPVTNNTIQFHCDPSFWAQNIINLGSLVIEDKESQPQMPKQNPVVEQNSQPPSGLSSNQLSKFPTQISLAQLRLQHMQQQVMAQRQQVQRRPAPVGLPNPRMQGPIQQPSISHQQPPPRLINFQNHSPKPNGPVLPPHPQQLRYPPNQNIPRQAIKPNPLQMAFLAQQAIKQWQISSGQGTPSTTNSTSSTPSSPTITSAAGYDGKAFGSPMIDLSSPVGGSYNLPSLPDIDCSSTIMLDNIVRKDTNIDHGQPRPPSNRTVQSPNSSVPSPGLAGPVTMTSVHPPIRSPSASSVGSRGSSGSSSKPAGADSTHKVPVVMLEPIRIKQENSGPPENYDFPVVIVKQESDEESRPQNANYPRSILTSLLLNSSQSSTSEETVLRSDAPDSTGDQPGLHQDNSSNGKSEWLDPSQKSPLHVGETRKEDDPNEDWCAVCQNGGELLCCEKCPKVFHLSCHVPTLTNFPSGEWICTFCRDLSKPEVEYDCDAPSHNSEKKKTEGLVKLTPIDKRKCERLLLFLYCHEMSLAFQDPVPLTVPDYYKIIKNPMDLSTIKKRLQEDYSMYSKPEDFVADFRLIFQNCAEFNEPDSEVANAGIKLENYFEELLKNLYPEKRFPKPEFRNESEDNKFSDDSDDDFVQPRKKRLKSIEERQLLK
UniProt O14980, whole entry, looked up: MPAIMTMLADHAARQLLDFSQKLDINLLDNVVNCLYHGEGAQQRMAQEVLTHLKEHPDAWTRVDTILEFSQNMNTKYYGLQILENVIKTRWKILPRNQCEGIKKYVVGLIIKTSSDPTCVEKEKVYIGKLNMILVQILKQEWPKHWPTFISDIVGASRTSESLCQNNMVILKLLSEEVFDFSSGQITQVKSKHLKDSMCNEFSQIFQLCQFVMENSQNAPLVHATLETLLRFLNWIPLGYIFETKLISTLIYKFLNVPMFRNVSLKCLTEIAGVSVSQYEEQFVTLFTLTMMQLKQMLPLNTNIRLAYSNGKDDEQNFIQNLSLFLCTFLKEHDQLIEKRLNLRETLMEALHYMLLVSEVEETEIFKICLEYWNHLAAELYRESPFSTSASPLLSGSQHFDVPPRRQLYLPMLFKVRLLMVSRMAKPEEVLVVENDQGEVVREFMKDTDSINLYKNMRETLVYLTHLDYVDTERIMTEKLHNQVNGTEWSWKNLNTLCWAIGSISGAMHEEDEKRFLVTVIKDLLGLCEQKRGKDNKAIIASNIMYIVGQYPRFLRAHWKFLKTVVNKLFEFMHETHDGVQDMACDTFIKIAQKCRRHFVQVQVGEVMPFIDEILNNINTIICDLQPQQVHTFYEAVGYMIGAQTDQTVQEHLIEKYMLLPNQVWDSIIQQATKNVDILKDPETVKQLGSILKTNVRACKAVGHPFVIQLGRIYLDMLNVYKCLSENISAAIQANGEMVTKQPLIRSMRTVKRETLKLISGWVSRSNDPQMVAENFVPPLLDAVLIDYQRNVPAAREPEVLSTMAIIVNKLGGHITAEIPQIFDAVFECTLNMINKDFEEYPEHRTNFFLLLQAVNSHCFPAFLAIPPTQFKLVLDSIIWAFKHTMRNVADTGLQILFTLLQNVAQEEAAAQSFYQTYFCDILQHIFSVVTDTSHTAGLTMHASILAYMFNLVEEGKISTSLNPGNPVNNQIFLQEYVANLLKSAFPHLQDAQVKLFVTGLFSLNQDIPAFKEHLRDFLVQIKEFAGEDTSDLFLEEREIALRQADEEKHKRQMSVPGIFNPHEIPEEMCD
UniProt O14893: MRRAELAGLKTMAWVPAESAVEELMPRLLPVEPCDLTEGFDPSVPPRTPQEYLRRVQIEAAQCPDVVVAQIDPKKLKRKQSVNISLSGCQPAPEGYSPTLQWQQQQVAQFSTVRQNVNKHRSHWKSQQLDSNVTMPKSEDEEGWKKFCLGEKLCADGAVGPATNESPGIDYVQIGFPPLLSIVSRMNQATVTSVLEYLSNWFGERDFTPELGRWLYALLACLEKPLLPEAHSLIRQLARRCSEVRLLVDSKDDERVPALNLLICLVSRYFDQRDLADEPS
UniProt O00567: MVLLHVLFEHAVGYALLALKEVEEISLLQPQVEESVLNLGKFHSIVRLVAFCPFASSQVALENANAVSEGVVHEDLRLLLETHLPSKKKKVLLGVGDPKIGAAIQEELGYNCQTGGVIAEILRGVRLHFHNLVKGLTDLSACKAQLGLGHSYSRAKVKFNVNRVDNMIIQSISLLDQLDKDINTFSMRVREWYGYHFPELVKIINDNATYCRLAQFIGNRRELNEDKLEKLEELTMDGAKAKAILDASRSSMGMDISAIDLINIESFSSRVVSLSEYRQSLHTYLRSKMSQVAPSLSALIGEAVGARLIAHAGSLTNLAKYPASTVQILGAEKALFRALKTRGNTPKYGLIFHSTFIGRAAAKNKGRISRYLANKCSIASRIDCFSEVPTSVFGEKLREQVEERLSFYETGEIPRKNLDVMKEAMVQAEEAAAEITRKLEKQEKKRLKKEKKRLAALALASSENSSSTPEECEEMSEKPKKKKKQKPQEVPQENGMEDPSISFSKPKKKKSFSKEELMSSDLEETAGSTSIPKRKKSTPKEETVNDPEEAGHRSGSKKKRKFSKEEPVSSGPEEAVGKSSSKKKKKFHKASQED
UniProt O14545: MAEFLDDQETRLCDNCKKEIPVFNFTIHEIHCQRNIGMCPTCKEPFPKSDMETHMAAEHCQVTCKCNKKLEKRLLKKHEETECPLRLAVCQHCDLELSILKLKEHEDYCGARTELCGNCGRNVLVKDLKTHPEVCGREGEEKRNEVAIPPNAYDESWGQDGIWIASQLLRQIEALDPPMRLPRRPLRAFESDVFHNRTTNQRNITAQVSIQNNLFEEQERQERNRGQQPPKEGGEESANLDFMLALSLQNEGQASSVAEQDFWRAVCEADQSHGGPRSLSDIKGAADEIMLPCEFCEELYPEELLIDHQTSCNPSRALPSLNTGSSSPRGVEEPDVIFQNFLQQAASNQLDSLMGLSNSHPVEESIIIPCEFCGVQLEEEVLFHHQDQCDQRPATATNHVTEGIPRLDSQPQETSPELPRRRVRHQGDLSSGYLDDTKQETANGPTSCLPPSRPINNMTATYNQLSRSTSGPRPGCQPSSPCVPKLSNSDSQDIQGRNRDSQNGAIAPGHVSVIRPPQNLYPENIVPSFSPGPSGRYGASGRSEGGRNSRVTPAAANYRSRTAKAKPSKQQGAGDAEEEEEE

Compound: COC(=O)C#Cc1ccccc1 [methyl 3-phenylpropiolate]
Test: log2 ratio of iodoacetamide-alkyne labeling of the cysteine site, DMSO over compound (competition); higher = stronger covalent engagement of the cysteine by the compound, active = 1 or more
Details: 500 µM; treatment time 1 h; system: HEK293T cell lysate
In short: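 Electrophile (500 µM) or vehicle was added to HEK293T lysate (2 mg/mL) for 1 h at ambient temperature before iodoacetamide alkyne labelling (1 h) and click coupling to sCIP-TMT reagents. After pooling, overnight trypsin digestion at 37 °C, streptavidin enrichment and acid elution, peptides were measured by Orbitrap Eclipse LC-MS/MS with FAIMS and quantified in FragPipe. Each cysteine's log2 competition ratio compares mean control-channel with mean compound-channel reporter intensity, control over compound. Data came from duplicate channels across three replicates, excluding cysteines quantified in only one replicate.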

Q: How did the “log2 ratio of iodoacetamide-alkyne labeling” value (“log2 ratio” for short) turn out when AP3D1 C208 (UniProt O14617) was run?
A: inactive: 0.338

Q: With DDX3X C298 (UniProt O00571) as the target, how does the “log2 ratio” value read?
A: inactive: 0.414

Q: For MGST3 C131 (UniProt O14880), which “log2 ratio” value is on record?
A: inactive: 0.00345

Q: UniProt O14965_C290 was tested. Which “log2 ratio” value did it give?
A: inactive: 0.197

Q: For UniProt O14733_C131, which “log2 ratio” value is on record?
A: inactive: 0.601

Q: Which “log2 ratio” value does the source give for RNMT C50 (UniProt O43148) here?
A: inactive: 0.483

Q: How did the “log2 ratio” value turn out when PLOD2 C494 (UniProt O00469) was run?
A: inactive: 0.723

Q: PES1 C272 (UniProt O00541) was tested. Which “log2 ratio” value did it give?
A: inactive: 0.915

Q: HGS C166 (UniProt O14964) was tested. Which “log2 ratio” value did it give?
A: inactive: 0.319

Q: Which “log2 ratio” value does the source give for UniProt O15042_C624 here?
A: inactive: 0.461

Q: For NKRF C246 (UniProt O15226), which “log2 ratio” value is on record?
A: inactive: 0.516

Q: With PPM1G C241 (UniProt O15355) as the target, how does the “log2 ratio” value read?
A: inactive: 0.17

Q: With DNM1L C367 (UniProt O00429) as the target, how does the “log2 ratio” value read?
A: inactive: 0.986

Q: HMGB3 C23 (UniProt O15347) was tested. Which “log2 ratio” value did it give?
A: inactive: -0.18

Q: Which “log2 ratio” value does the source give for IGF2BP3 C546 (UniProt O00425) here?
A: inactive: 0.284

Q: With DYNC1LI2 C104 (UniProt O43237) as the target, how does the “log2 ratio” value read?
A: inactive: -0.124

Q: Which “log2 ratio” value does the source give for PSMA7 C63 (UniProt O14818) here?
A: inactive: 0.114

Q: With UniProt O00148_C164 as the target, how does the “log2 ratio” value read?
A: inactive: 0.0125

Q: For FAM171A2 C742 (UniProt A8MVW0), which “log2 ratio” value is on record?
A: inactive: 0.116

Q: For NKRF C37 (UniProt O15226), which “log2 ratio” value is on record?
A: active: 1.02

Q: IRS4 C381 (UniProt O14654) was tested. Which “log2 ratio” value did it give?
A: inactive: 0.737

Q: With UniProt O14950_C109 as the target, how does the “log2 ratio” value read?
A: inactive: 0.246

Q: Which “log2 ratio” value does the source give for WASL C431 (UniProt O00401) here?
A: active: 1.06

Q: SPTBN2 C607 (UniProt O15020) was tested. Which “log2 ratio” value did it give?
A: inactive: 0.479

Q: How did the “log2 ratio” value turn out when TRIM24 C629 (UniProt O15164) was run?
A: inactive: 0.316

Q: How did the “log2 ratio” value turn out when POLRMT C925 (UniProt O00411) was run?
A: inactive: -0.0567

Q: With XPO1 C327 (UniProt O14980) as the target, how does the “log2 ratio” value read?
A: inactive: -0.125

Q: With GEMIN2 C34 (UniProt O14893) as the target, how does the “log2 ratio” value read?
A: inactive: 0.0131

Q: Which “log2 ratio” value does the source give for XPO1 C164 (UniProt O14980) here?
A: inactive: -0.00596

Q: How did the “log2 ratio” value turn out when UniProt O00567_C52 was run?
A: inactive: 0.482

Q: With PSMD9 C216 (UniProt O00233) as the target, how does the “log2 ratio” value read?
A: inactive: -0.0404

Q: For O15320_C147 (UniProt Q96PC5+O15320), which “log2 ratio” value is on record?
A: inactive: -0.197

Q: For PSMD9 C59 (UniProt O00233), which “log2 ratio” value is on record?
A: inactive: 0.273

Q: For PHGDH C295 (UniProt O43175), which “log2 ratio” value is on record?
A: inactive: 0.0411

Q: IRS4 C522 (UniProt O14654) was tested. Which “log2 ratio” value did it give?
A: inactive: 0.802

Q: Which “log2 ratio” value does the source give for TRAFD1 C476 (UniProt O14545) here?
A: active: 1.55

Q: How did the “log2 ratio” value turn out when PHGDH C19 (UniProt O43175) was run?
A: inactive: -0.27
